Laboratory results: the supplement of paper PMC12067093, “Discovery and optimisation of a covalent ligand for TRIM25 and its application to targeted protein ubiquitination” (Chemical Science, 2025)
The list shows a part of the results.

Protein sequences, listed by entry. Tags and fused reporters are not part of them. Lines headed by an entry give the natural chain unless they say otherwise; changes in a name come on top.
UniProt Q92785, whole entry, looked up: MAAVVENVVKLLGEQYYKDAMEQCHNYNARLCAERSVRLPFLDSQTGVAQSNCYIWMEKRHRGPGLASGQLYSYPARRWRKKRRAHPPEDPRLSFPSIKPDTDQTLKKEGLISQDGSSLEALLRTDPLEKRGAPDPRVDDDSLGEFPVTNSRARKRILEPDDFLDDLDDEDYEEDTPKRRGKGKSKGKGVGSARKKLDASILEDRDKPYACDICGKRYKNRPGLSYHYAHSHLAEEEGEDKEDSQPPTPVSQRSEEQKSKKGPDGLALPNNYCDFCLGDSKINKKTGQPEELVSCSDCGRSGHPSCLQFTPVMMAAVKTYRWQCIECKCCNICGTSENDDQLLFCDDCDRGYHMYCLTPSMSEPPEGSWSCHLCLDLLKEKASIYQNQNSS
UniProt Q9H2P9: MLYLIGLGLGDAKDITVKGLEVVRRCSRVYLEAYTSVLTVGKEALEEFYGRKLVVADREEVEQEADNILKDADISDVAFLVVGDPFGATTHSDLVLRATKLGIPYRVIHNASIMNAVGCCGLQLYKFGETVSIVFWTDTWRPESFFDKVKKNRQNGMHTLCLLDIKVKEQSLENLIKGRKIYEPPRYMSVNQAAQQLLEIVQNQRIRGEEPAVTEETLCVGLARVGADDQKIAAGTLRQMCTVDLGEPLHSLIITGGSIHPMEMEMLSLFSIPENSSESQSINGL
UniProt O75319: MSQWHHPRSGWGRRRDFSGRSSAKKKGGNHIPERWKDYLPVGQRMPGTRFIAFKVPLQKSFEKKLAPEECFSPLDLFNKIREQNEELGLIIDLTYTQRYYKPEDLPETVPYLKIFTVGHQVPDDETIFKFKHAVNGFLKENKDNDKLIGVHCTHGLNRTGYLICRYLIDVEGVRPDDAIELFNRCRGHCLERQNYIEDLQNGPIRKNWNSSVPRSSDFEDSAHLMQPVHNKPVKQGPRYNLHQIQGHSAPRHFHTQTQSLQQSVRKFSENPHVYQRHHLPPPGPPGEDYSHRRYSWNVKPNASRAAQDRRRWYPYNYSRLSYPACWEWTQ
UniProt Q8NF50: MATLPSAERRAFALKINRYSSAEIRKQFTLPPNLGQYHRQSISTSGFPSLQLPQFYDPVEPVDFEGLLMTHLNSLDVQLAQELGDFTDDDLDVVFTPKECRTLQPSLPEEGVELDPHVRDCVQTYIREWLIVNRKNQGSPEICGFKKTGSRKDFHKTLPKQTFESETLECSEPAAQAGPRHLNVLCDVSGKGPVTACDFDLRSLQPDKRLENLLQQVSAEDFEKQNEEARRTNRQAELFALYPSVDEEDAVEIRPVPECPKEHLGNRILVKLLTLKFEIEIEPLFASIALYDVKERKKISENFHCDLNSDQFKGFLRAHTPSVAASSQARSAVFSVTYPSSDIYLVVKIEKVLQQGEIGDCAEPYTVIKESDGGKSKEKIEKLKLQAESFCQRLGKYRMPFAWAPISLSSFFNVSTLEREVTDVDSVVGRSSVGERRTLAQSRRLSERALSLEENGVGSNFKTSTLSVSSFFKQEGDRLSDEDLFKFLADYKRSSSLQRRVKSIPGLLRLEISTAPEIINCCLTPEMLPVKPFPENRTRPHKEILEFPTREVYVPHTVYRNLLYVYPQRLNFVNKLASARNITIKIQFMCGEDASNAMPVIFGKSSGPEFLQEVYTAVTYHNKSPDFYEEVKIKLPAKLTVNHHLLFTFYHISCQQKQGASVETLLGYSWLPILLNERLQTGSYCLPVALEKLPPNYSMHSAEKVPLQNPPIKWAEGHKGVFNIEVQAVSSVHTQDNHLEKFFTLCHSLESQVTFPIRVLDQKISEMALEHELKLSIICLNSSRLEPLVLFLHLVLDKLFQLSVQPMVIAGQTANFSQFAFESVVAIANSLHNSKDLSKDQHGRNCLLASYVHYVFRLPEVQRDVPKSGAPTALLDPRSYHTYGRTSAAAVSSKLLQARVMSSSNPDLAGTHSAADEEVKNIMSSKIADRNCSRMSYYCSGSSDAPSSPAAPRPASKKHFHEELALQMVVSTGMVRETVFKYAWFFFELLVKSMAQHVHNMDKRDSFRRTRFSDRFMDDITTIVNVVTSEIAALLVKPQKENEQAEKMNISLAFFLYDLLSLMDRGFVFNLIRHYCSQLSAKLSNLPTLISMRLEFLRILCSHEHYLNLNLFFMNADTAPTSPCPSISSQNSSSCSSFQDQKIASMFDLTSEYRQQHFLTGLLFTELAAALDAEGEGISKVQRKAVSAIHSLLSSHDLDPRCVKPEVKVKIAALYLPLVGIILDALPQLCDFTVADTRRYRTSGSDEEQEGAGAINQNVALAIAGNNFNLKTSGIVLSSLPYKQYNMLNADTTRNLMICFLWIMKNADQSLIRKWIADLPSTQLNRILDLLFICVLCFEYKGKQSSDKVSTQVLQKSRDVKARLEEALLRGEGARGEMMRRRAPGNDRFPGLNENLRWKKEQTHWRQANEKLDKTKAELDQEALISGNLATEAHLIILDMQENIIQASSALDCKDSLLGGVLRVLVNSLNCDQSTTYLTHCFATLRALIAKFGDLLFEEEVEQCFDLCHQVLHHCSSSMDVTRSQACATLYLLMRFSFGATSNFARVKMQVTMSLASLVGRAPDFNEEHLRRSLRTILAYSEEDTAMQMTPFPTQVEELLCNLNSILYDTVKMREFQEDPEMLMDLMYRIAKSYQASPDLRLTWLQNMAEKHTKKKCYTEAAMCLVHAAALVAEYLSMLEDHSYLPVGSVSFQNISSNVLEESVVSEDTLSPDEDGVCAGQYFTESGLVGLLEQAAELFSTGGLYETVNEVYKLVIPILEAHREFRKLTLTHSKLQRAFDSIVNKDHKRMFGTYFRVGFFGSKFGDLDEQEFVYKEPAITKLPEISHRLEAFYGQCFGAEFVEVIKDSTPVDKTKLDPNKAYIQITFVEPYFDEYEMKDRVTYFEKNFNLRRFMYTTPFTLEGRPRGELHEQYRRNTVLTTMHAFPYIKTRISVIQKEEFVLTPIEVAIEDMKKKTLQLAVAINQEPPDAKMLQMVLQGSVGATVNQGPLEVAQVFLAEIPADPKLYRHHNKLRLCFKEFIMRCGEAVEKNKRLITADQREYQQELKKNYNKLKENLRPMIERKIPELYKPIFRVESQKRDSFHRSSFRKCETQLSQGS
UniProt P55039: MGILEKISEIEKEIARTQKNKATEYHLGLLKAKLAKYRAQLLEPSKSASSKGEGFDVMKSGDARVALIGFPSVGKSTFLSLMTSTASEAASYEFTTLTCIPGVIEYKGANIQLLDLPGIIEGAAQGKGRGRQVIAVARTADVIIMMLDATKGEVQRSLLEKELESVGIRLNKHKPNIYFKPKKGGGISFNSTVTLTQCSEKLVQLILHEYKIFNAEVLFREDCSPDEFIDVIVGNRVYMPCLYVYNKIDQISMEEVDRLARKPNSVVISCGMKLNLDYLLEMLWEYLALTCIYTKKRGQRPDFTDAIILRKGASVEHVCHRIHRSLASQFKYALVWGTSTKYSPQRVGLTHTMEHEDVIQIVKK
UniProt Q96CJ1: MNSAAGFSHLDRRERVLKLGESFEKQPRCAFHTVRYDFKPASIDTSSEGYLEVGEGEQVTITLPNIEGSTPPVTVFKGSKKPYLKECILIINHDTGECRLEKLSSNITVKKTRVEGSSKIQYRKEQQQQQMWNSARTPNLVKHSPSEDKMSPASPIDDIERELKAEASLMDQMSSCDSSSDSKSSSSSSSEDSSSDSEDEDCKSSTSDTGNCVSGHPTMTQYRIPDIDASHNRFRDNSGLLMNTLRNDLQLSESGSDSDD
UniProt Q6UX65: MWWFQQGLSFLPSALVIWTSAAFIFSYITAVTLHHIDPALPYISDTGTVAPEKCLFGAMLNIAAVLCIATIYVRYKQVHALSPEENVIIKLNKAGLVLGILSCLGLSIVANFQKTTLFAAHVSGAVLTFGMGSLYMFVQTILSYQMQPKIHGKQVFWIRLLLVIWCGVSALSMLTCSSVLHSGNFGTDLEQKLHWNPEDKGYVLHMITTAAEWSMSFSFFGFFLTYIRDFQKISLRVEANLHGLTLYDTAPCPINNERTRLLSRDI
UniProt Q96G46: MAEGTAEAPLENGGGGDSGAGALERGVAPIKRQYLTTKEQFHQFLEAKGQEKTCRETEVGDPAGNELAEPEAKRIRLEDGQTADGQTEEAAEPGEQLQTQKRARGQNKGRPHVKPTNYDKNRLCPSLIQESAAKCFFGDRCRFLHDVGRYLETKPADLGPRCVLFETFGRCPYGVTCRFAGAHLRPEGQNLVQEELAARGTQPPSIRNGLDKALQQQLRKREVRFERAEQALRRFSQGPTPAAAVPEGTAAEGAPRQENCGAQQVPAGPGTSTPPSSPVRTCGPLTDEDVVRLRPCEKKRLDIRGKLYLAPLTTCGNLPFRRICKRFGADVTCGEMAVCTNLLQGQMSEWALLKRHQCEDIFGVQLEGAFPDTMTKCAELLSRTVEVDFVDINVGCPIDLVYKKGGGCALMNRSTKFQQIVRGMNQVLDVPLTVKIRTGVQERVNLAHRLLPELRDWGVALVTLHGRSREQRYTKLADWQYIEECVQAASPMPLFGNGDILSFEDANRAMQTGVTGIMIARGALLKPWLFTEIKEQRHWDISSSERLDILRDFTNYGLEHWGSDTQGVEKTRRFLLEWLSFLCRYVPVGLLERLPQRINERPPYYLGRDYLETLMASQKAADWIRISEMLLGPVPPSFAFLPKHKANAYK
UniProt Q7L591: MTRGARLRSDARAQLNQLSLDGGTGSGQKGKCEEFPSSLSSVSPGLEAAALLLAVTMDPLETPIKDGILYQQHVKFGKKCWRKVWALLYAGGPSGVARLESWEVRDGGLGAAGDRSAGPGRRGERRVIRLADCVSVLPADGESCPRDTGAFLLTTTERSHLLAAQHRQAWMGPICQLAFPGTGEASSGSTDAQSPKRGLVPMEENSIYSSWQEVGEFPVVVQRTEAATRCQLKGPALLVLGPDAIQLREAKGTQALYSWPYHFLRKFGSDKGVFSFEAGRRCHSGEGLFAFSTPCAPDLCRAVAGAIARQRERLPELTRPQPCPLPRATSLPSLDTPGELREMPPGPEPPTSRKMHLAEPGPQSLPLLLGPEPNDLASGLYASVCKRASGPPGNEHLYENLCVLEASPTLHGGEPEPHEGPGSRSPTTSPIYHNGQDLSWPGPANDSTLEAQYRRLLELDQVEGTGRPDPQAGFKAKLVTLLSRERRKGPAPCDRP
UniProt Q66K89: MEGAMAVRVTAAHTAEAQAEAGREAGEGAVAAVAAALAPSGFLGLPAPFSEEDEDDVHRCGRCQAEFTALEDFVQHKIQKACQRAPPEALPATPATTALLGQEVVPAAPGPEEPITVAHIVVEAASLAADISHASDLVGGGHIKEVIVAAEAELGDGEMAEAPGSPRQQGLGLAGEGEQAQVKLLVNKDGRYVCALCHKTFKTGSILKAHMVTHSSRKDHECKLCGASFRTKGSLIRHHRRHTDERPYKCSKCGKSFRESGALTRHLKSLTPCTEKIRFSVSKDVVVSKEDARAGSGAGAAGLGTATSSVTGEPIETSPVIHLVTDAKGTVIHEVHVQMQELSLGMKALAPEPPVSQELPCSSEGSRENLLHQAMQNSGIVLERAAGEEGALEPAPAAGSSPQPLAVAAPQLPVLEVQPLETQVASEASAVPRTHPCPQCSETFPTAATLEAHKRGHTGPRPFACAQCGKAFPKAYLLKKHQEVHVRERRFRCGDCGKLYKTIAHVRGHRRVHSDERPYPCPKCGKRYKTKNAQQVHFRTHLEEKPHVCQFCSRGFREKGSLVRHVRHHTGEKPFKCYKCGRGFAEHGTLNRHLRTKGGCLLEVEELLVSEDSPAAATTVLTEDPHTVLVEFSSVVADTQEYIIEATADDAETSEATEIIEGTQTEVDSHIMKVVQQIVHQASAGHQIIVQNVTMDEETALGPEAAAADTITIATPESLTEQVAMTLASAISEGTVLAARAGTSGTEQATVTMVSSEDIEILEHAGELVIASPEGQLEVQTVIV
UniProt Q9BVJ7: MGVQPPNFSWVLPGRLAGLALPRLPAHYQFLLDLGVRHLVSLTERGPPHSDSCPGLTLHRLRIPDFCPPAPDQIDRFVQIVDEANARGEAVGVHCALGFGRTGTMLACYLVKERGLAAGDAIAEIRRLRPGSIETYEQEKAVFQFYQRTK
UniProt Q9H3H5: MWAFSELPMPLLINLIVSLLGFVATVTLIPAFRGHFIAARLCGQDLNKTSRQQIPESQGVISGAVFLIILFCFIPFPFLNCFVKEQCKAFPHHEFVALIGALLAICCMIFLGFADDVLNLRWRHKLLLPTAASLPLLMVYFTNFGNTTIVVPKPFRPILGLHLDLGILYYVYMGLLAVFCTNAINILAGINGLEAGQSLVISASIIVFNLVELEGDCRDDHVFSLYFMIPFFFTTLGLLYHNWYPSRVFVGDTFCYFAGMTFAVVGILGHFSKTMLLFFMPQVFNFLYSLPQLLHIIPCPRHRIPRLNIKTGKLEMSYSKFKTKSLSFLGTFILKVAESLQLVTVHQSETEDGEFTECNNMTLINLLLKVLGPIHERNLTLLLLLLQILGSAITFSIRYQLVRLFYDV

Compound: Cc1cc(ccc1-c1ccccc1)C(=O)N1CCCN(CC1)C(=O)CCl [compound 10]
Assay: probe-labelled cysteine peptide fold change vs DMSO (competition) (log2 fold change); higher = less target engagement (more negative = stronger competition)
Conditions: THP-1, incubation time: 4 h
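Also: competitive profiling in live THP-1 cells: cysteine peptides tagged with an iodoacetamide desthiobiotin (IA-DTB) probe, intensity after compound treatment relative to DMSO-treated cells.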

Row | Target | probe-labelled cysteine peptide fold change (10 µM) | probe-labelled cysteine peptide fold change (50 µM)
1 | DTWD2_Q8NBA8_143_FSEERDPELSTVCR (UniProt Q8NBA8) | -0.408 | -0.608
2 | DPF2_Q92785_276_KGPDGLALPNNYCDFCLGDSK (UniProt Q92785) | 0.0347 | -0.195
3 | DUS2_Q9NX74_475_AQELAQPGDLCK (UniProt Q9NX74) | -0.295 | -0.269
4 | DSCC1_Q9BVC3_111_KEDSHCNIIHTEIFGFSNNYWELR (UniProt Q9BVC3) | -0.0834 | 0.00737
5 | DPH5_Q9H2P9_219_IRGEEPAVTEETLCVGLAR (UniProt Q9H2P9) | -0.0203 | -0.00995
6 | DTX3L_Q8TDB6_41_SSGGGECTVSTQEHEAPGTFR (UniProt Q8TDB6) | 0.0505 | -0.0416
7 | DOP1B_Q9Y3R5_1040_EACAVPEPQESGSEEHLPLSQFTTVDR (UniProt Q9Y3R5) | -0.00453 | -0.16
8 | DUSP11_O75319_199_LIGVHCTHGLNR (UniProt O75319) | 0.081 | -0.107
9 | DOCK8_Q8NF50_939_MSYYCSGSSDAPSSPAAPRPASK (UniProt Q8NF50) | -0.194 | -0.304
10 | DRG2_P55039_319_KGASVEHVCHR (UniProt P55039) | 0.128 | 0.037
11 | E2F4_Q16254_136_NVTEDVQNSCLAYVTHEDICR (UniProt Q16254) | -0.256 | -0.444
12 | DNMT3A_Q9Y6K1_818_LELQECLEHGR (UniProt Q9Y6K1) | -0.241 | 0.0362
13 | DOCK8_Q8NF50_143_NQGSPEICGFK (UniProt Q8NF50) | -0.481 | -0.589
14 | DYNC1H1_Q14204_2663_WLVLFCDEINLPDMDK (UniProt Q14204) | 0.0525 | 0.0766
15 | EAF2_Q96CJ1_87+98_ECILIINHDTGECR (UniProt Q96CJ1) | 0.435 | 0.555
16 | DRAM2_Q6UX65_252_VEANLHGLTLYDTAPCPINNER (UniProt Q6UX65) | -0.0568 | -0.0952
17 | DUS3L_Q96G46_171+177_CPYGVTCR (UniProt Q96G46) | -0.295 | -0.294
18 | DUS3L_Q96G46_396_TVEVDFVDINVGCPIDLVYK (UniProt Q96G46) | -0.0529 | 0.0764

Row | Target | probe-labelled cysteine peptide fold change (10 µM) | probe-labelled cysteine peptide fold change (50 µM)
19 | DYNC1H1_Q14204_4438_QDLADVVQVCEGK (UniProt Q14204) | -0.0212 | 0.124
20 | DPP8_Q6V1X1_506_CPIKEEIAITSGEWEVLGR (UniProt Q6V1X1) | -0.17 | -0.313
21 | DUT_P33316-2_3_PCSEETPAISPSKR (UniProt P33316) | -0.164 | -0.219
22 | DYNC1H1_Q14204_2639_TFDHYCEYRR (UniProt Q14204) | -0.0687 | -0.154
23 | DOK3_Q7L591_493_KGPAPCDRP (UniProt Q7L591) | -0.0231 | 0.0248
24 | DOCK8_Q8NF50_590_IQFMCGEDASNAMPVIFGK (UniProt Q8NF50) | 0.192 | 0.0438
25 | DYNC1H1_Q14204_1977_MLSAVSQQVQCIQEALR (UniProt Q14204) | 0.116 | 0.369
26 | ECH1_Q13011_187_YCAQDAFFQVK (UniProt Q13011) | 0.086 | 0.117
27 | DPF2_Q92785_24_DAMEQCHNYNAR (UniProt Q92785) | 0.000209 | -0.0844
28 | E4F1_Q66K89_63_CQAEFTALEDFVQHK (UniProt Q66K89) | 0.215 | 0.174
29 | DPP9_Q86TI2_184_TQCSGPR (UniProt Q86TI2) | -0.198 | -0.0818
30 | DUSP23_Q9BVJ7_53_GPPHSDSCPGLTLHR (UniProt Q9BVJ7) | -0.132 | 0.0175
31 | DRG2_P55039_198_KGGGISFNSTVTLTQCSEK (UniProt P55039) | 0.255 | 0.104
32 | DOK3_Q7L591_282+295_CHSGEGLFAFSTPCAPDLCR (UniProt Q7L591) | -0.113 | -0.351
33 | DPAGT1_Q9H3H5_42_LCGQDLNK (UniProt Q9H3H5) | -0.0148 | 0.062
34 | DPH5_Q9H2P9_119_VIHNASIMNAVGCCGLQLYK (UniProt Q9H2P9) | 0.0354 | -0.1
35 | DYNC1H1_Q14204_2594_VAAPDVVVPTLDTVRHEALLYTWLAEHKPLVLCGPPGSGK (UniProt Q14204) | -0.181 | -0.3
